Measured values reported in article PMC8782181.

By UniProt entry, the sequences of proteins in these tests, tags left out.
UniProt P53297: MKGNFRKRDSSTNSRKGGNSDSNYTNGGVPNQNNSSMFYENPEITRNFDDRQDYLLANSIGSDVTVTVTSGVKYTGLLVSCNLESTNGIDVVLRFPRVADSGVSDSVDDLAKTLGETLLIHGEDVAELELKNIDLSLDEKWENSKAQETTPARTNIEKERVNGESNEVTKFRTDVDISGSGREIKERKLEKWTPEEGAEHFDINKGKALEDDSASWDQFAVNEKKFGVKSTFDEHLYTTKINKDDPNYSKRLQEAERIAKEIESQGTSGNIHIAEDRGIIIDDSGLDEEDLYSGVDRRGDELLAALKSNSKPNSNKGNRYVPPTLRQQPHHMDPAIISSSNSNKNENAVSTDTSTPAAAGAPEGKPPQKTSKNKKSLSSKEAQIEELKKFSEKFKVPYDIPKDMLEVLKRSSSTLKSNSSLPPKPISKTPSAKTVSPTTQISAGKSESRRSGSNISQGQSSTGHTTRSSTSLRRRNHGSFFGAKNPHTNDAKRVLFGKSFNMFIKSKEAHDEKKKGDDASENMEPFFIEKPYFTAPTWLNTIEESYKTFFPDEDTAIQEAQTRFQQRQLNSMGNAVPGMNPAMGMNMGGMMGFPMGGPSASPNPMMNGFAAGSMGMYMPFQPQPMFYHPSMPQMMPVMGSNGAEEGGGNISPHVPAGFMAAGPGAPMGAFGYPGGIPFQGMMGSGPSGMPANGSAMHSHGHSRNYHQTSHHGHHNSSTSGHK

B1: Rrb1 (protein, UniProt Q04225 1-511)
chain: MSKRSIEVNEEQDRVVSAKTESHSVPAIPASEEQDAPKNDLEEQLSDEFDSDGEIIEIDGDDEINDEDDLRKKQEEAETLVQKDQSEGNKEKIQELYLPHMSRPLGPDEVLEADPTVYEMLHNVNMPWPCLTLDVIPDTLGSERRNYPQSILLTTATQSSRKKENELMVLALSNLAKTLLKDDNEGEDDEEDDEDDVDPVIENENIPLRDTTNRLKVSPFAISNQEVLTATMSENGDVYIYNLAPQSKAFSTPGYQIPKSAKRPIHTVKNHGNVEGYGLDWSPLIKTGALLSGDCSGQIYFTQRHTSRWVTDKQPFTVSNNKSIEDIQWSRTESTVFATAGCDGYIRIWDTRSKKHKPAISVKASNTDVNVISWSDKIGYLLASGDDNGTWGVWDLRQFTPSNADAVQPVAQYDFHKGAITSIAFNPLDESIVAVGSEDNTVTLWDLSVEADDEEIKQQAAETKELQEIPPQLLFVHWQKEVKDVKWHKQIPGCLVSTGTDGLNVWKTISV
B2: Puf3 (protein, UniProt Q07807 1-879)
chain: MEMNMDMDMDMELASIVSSLSALSHSNNNGGQAAAAGIVNGGAAGSQQIGGFRRSSFTTANEVDSEILLLHGSSESSPIFKKTALSVGTAPPFSTNSKKFFGNGGNYYQYRSTDTASLSSASYNNYHTHHTAANLGKNNKVNHLLGQYSASIAGPVYYNGNDNNNSGGEGFFEKFGKSLIDGTRELESQDRPDAVNTQSQFISKSVSNASLDTQNTFEQNVESDKNFNKLNRNTTNSGSLYHSSSNSGSSASLESENAHYPKRNIWNVANTPVFRPSNNPAAVGATNVALPNQQDGPANNNFPPYMNGFPPNQFHQGPHYQNFPNYLIGSPSNFISQMISVQIPANEDTEDSNGKKKKKANRPSSVSSPSSPPNNSPFPFAYPNPMMFMPPPPLSAPQQQQQQQQQQQQEDQQQQQQQENPYIYYPTPNPIPVKMPKDEKTFKKRNNKNHPANNSNNANKQANPYLENSIPTKNTSKKNASSKSNESTANNHKSHSHSHPHSQSLQQQQQTYHRSPLLEQLRNSSSDKNSNSNMSLKDIFGHSLEFCKDQHGSRFIQRELATSPASEKEVIFNEIRDDAIELSNDVFGNYVIQKFFEFGSKIQKNTLVDQFKGNMKQLSLQMYACRVIQKALEYIDSNQRIELVLELSDSVLQMIKDQNGNHVIQKAIETIPIEKLPFILSSLTGHIYHLSTHSYGCRVIQRLLEFGSSEDQESILNELKDFIPYLIQDQYGNYVIQYVLQQDQFTNKEMVDIKQEIIETVANNVVEYSKHKFASNVVEKSILYGSKNQKDLIISKILPRDKNHALNLEDDSPMILMIKDQFANYVIQKLVNVSEGEGKKLIVIAIRAYLDKLNKSNSLGNRHLASVEKLAALVENAEV
B3: Ssh1 (protein, UniProt P38353 1-490)
chain: MSGFRLIDIVKPILPILPEVELPFEKLPFDDKIVYTIFAGLIYLFAQFPLVGLPKATTPNVNDPIYFLRGVFGCEPRTLLEFGLFPNISSGLILQLLAGLKVIKVNFKIQSDRELFQSLTKVFAIVQYVILTNIFIFAGYFGDDLSVVQIGLINFQLVGAGIFTTLLAEVIDKGFGFSSGAMIINTVVIATNLVADTFGVSQIKVGEDDQTEAQGALINLIQGLRSKHKTFIGGIISAFNRDYLPNLTTTIIVLAIAIIVCYLQSVRVELPIRSTRARGTNNVYPIKLLYTGCLSVLFSYTILFYIHIFAFVLIQLVAKNEPTHIICKIMGHYENANNLLAVPTFPLSLLAPPTSFFKGVTQQPLTFITYSAFILVTGIWFADKWQAISGSSARDVALEFKDQGITLMGRREQNVAKELNKVIPIAAVTGASVLSLITVIGESLGLKGKAAGIVVGIAGGFSLLEVITIEYQQSGGQSALNQVLGVPGAM
B4: Rpn5 (protein, UniProt Q12250 1-445)
chain: MSRDAPIKADKDYSQILKEEFPKIDSLAQNDCNSALDQLLVLEKKTRQASDLASSKEVLAKIVDLLASRNKWDDLNEQLTLLSKKHGQLKLSIQYMIQKVMEYLKSSKSLDLNTRISVIETIRVVTENKIFVEVERARVTKDLVEIKKEEGKIDEAADILCELQVETYGSMEMSEKIQFILEQMELSILKGDYSQATVLSRKILKKTFKNPKYESLKLEYYNLLVKISLHKREYLEVAQYLQEIYQTDAIKSDEAKWKPVLSHIVYFLVLSPYGNLQNDLIHKIQNDNNLKKLESQESLVKLFTTNELMRWPIVQKTYEPVLNEDDLAFGGEANKHHWEDLQKRVIEHNLRVISEYYSRITLLRLNELLDLTESQTETYISDLVNQGIIYAKVNRPAKIVNFEKPKNSSQLLNEWSHNVDELLEHIETIGHLITKEEIMHGLQAK
B5: Tat1 (protein, UniProt P38085 1-619)
chain: MDDSVSFIAKEASPAQYSHSLHERTHSEKQKRDFTITEKQDEVSGQTAEPRRTDSKSILQRKCKEFFDSFKRQLPPDRNSELESQEKNNLTKSIKSRHLVMISLGTGIGTGLLVGNGQVLGTAGPAGLVLGYGIASIMLYCIIQAAGELGLCYAGLTGNYTRYPSILVDPSLGFAVSVVYTIQWLTVLPLQLVTAAMTVKYWTSVNADIFVAVVFVFVIIINLFGSRGYAEAEFIFNSCKILMVIGFVILAIIINCGGAGDRRYIGAEYWHNPGPFAHGFKGVCTVFCYAAFSYGGIEVLLLSAAEQENPTKSIPNACKKVVYRILLIYMLTTILVCFLVPYNSDELLGSSDSSGSHASPFVIAVASHGVKVVPHFINAVILISVISVANSSLYSGPRLLLSLAEQGVLPKCLAYVDRNGRPLLCFFVSLVFGCIGFVATSDAEEQVFTWLLAISSLSQLFIWMSMSLSHIRFRDAMAKQGRSMNEVGYKAQTGYWGSWLAVLIAIFFLVCQFWVAIAPVNEHGKLNVKVFFQNYLAMPIVLFAYFGHKIYFKSWSFWIPAEKIDLDSHRNIFVSPSLTEIDKVDDNDDLKEYENSESSENPNSSRSRKFFKRMTNFWC
B6: Rpf2 (protein, UniProt P36160 1-344)
chain: MIRTVKPKNARAKRALVKREAKLVENVKQALFIPGQSCNKNLHDIMVDLSALKKPDMKRFNRKNDIHPFEDMSPLEFFSEKNDCSLMVLMTSSKKRKNNMTFIRTFGYKIYDMIELMVADNFKLLSDFKKLTFTVGLKPMFTFQGAAFDTHPVYKQIKSLFLDFFRGESTDLQDVAGLQHVISMTIQGDFQDGEPLPNVLFRVYKLKSYKSDQGGKRLPRIELVEIGPRLDFKIGRIHTPSPDMVTEAHKKPKQLEMKTKKNVELDIMGDKLGRIHMGKQDLGKLQTRKMKGLKSKFDQGTEEGDGEVDEDYEDEASYSDDGQEYEEEFVSATDIEPSAKRQKK
B7: Utp22 (protein, UniProt P53254 1-1237)
chain: MATSVKRKASETSDQNIVKVQKKHSTQDSTTDNGSKENDHSSQAINERTVPEQENDESDTSPESNEVATNTAATRHNGKVTATESYDIHIARETAELFKSNIFKLQIDELLEQVKLKQKHVLKVEKFLHKLYDILQEIPDWEEKSLAEVDSFFKNKIVSVPFVDPKPIPQNTNYKFNYKKPDISLIGSFALKAGIYQPNGSSIDTLLTMPKELFEKKDFLNFRCLHKRSVYLAYLTHHLLILLKKDKLDSFLQLEYSYFDNDPLLPILRISCSKPTGDSLSDYNFYKTRFSINLLIGFPYKVFEPKKLLPNRNCIRIAQESKEQSLPATPLYNFSVLSSSTHENYLKYLYKTKKQTESFVEATVLGRLWLQQRGFSSNMSHSGSLGGFGTFEFTILMAALLNGGGINSNKILLHGFSSYQLFKGVIKYLATMDLCHDGHLQFHSNPENSSSSPASKYIDEGFQTPTLFDKSTKVNILTKMTVSSYQILKEYAGETLRMLNNVVQDQFSNIFLTNISRFDNLKYDLCYDVQLPLGKYNNLETSLAATFGSMERVKFITLENFLAHKITNVARYALGDRIKYIQIEMVGQKSDFPITKRKVYSNTGGNHFNFDFVRVKLIVNPSECDKLVTKGPAHSETMSTEAAVFKNFWGIKSSLRRFKDGSITHCCVWSTSSSEPIISSIVNFALQKHVSKKAQISNETIKKFHNFLPLPNLPSSAKTSVLNLSSFFNLKKSFDDLYKIIFQMKLPLSVKSILPVGSAFRYTSLCQPVPFAYSDPDFFQDVILEFETSPKWPDEITSLEKAKTAFLLKIQEELSANSSTYRSFFSRDESIPYNLEIVTLNILTPEGYGFKFRVLTERDEILYLRAIANARNELKPELEATFLKFTAKYLASVRHTRTLENISHSYQFYSPVVRLFKRWLDTHLLLGHITDELAELIAIKPFVDPAPYFIPGSLENGFLKVLKFISQWNWKDDPLILDLVKPEDDIRDTFETSIGAGSELDSKTMKKLSERLTLAQYKGIQMNFTNLRNSDPNGTHLQFFVASKNDPSGILYSSGIPLPIATRLTALAKVAVNLLQTHGLNQQTINLLFTPGLKDYDFVVDLRTPIGLKSSCGILSATEFKNITNDQAPSNFPENLNDLSEKMDPTYQLVKYLNLKYKNSLILSSRKYIGVNGGEKGDKNVITGLIKPLFKGAHKFRVNLDCNVKPVDDENVILNKEAIFHEIAAFGNDMVINFETD
B8: Nma1 (protein, UniProt Q06178 1-401)
chain: MDPTRAPDFKPPSADEELIPPPDPESKIPKSIPIIPYVLADANSSIDAPFNIKRKKKHPKHHHHHHHSRKEGNDKKHQHIPLNQDDFQPLSAEVSSEDDDADFRSKERYGSDSTTESETRGVQKYQIADLEEVPHGIVRQARTLEDYEFPSHRLSKKLLDPNKLPLVIVACGSFSPITYLHLRMFEMALDAISEQTRFEVIGGYYSPVSDNYQKQGLAPSYHRVRMCELACERTSSWLMVDAWESLQPSYTRTAKVLDHFNHEINIKRGGVATVTGEKIGVKIMLLAGGDLIESMGEPNVWADADLHHILGNYGCLIVERTGSDVRSFLLSHDIMYEHRRNILIIKQLIYNDISSTKVRLFIRRAMSVQYLLPNSVIRYIQEHRLYVDQTEPVKQVLGNKE
B9: Osh6 (protein, UniProt Q02201 1-448)
chain: MGSKKLTVGSDSHRLSKSSFSSNKSSHSATKDQPIDTDDIDEDDESGHNIILNIISQLRPGCDLTRITLPTFILEKKSMLERVTNQLQFPEFLLQAHSEKDPLKRFLYVMKWYLAGWHIAPKAVKKPLNPVLGEYFTAYWDLPNKQQAYYISEQTSHHPPECAYFYMIPESSIRVDGVVIPKSRFLGNSSAAMMDGSTVLQFLDIKDGNGKPEKYVLTQPNVYVRGILFGKMRIELGDHMIIKSPNFQADIEFKTKGYVFGTYDAIEGTVKDYDGNAYYEISGKWNDVMYLKDLKQPRSSPKVFLDTHKESPLRPKVRPLSEQGEYESRKLWKKVTDALAVRNHPVATEEKFQIEDHQRQLAKKRIEDGVEFHPKLFRRSKPGEDLDYCIYKNIPVDEDPEKQIRSILQIAPILPGQQFTDKFFIPAFEKIKSQKKMIENEKQNPAKQ

Target: Pbp1-myc (S. cerevisiae) (UniProt P53297)
Assay: affinity purification with mass spectrometry; cells unstressed or glucose-depleted (10 min for Dcp1-myc, 60 min for Pbp1-myc), cross-linked with 0.8% formaldehyde; 20,000 g pellet of the lysate in Blob100 buffer (20 mM Tris-HCl pH 8, 100 mM NaCl, 1 mM MgCl2, 0.5% NP40) on anti-c-Myc magnetic beads, eluted with Myc peptide; label-free LC-MS/MS; hits are the proteins that cluster (Mfuzz) with the tagged bait across IP, pellet, supernatant, total and unbound fractions

binding, binds:
B1, B2, B3, B4, B5, B6, B7, B8, B9

Results are given in words; binding and its absence hold for the method and conditions named. In cells and extracts the contact can be indirect. These calls come from enrichment with a bait or labelling near it, and not all partners need be listed.
